# Data published in paper PMC11298430, “Synthesis and In vitro evaluation of bichalcones as novel anti-toxoplasma agents” (Frontiers in Chemistry, 2024).
# Tested on: human fibroblasts Hs27
# Experiment: MTT cytotoxicity assay
# Assay type: cell-based
# Conditions: ratio of CC50/IC50 (Hs27 / T. gondii)
# Method: The MTT [3-(4, 5-dimethylthiazole-2-yl)-2, 5-diphenyltetrazolium bromide] reduction assay ([Mosmann, 1983]) was used to quantify the cytotoxic effects of the examined chalcones and bichalcones on the host cells. To avoid edge effects, only the inner 60 wells of each plate were used. Briefly, 5 × 10^4 Hs27 cells per well were cultured in 96-well microtiter plates in Iscove’s modified Dulbecco’s medium (IMDM, Gibco–Thermo Fisher Scientific, Braunschweig, Germany, #12440053) with a volume of 100 µL per well and incubated overnight at 37°C until confluence. Different concentrations of the compounds (ranging from 200 μM to 0.09 µM) were then added to the Hs27 cells. Controls included untreated Hs27 cells treated with DMSO, and cells treated with staurosporine (0.031, 0.062, 0.125, 0.25, 0.5, 1 µM) (Merck, Darmstadt, Germany, #S4400), a natural product known for its potent activity as apoptosis inducer ([Belmokhtar et al., 2001]). […] Optical density (O.D.) was measured at 570 nm using a microplate reader (TECAN Sunrise, Männedorf, Switzerland). The half-maximal cytotoxic concentration (CC50) values of each compound against Hs27 cells relative to DMSO-treated samples were determined using GraphPad PRISM™ statistical software (version 9.5.1; San Diego, CA). In addition, the selectivity index (SI) of each compound was calculated from the ratio of CC50/IC50.
smiles,measurement,value
COc1ccc(/C=C/C(=O)c2c(O)cc(OC)cc2OC)cc1 [1ba],SI,>25
